No constants are given. Whether binding was seen depends on the method and setting. In cells and extracts the contact can be indirect. These calls come from enrichment with a bait or labelling near it, and not all partners need be listed.
Target: β2-adrenergic receptor (UniProt P07550)
Test: affinity purification with mass spectrometry; purified Flag-β2AR in rHDL immobilised on M1 anti-Flag resin, occupied by 50 µM BI-167107 (full agonist) or 50 µM carazolol (inverse agonist); adult rat heart cytosol (10 mg/ml, 4 mM CaCl2) overnight at 4°C; eluted with FLAG peptide and EDTA; gel slices, LC-MS; proteins of the M1 resin, empty rHDL and Ni-NTA controls subtracted; hits of either or both samples; only the target purified

Binder | binding
PFKM (protein, UniProt P47858 1-780) MTHEEHHEAKTLGIGKAIAVLTSGGDAQGMNATVRAVVRVGIFTGLRVFFVHEGYQGLVDGGEHIREATWESVSMMLQLGGTVIGSARCKDFREREGRLRAAHNLVKRGITNLCVIGGDGSLTGADTFRSEWSDLLNDLQKDGKITAEERTKSSYLNIVFLVGSIDNDFCGTDMTIGTDSALHRIVEIVDAITTTAQSHQRTFVLEVMGRHCGYLALVTSLSCGADWVFIPECPPDDDWEEHLCRRLSETRTRGSRLNIIIVAEGAIDKNGKPITSEDIKNLVVKRLGYDTRVTVLGHVQRGGTPSAFDRILGSRMGVEAVMALLEGTPDTPACVVSLSGNTAVRLPLMECVQVTKDVTKAMDEKRFDEAIKLRGRSFMNNWEVYKLLAHVRPPVSKGGLHTVAVMNVGAPAAGMNAAVRSTVRIGLIQGNRVLVVHDGFEGLAKGQIEEAGWSYVGGWTGQGGSKLGTKRTLPKKNLEQISANITKYNIQGLVIIGGFEAYTGGLELMEGRKQFDELCIPFVVIPATVSNNVPGSDFSIGADTALNTICTTCDRIKQSAAGTKRRVFIIETMGGYCGYLATMAGLAAGADAAYIFEEPFTIRDLQVNVEHLVQKMKTTVKRGLVLRNEKCNENYTTDFIFNLYSEEGKGIFDSRKNVLGHMQQGGNPTPFDRNFATKMGAKATNWMSGKIKESYRNGRIFANTPDSGCVLGMRKRALVFQPVTELKDQTDFEHRIPKEQWWLKLRPILKILAKYEIDLDTSDHAHLEHISRKRSGEAAV | binds
PGAM2 (protein, UniProt P16290 1-253) MATHRLVMVRHGESSWNQENRFCGWFDAELSEKGAEEAKRGATAIKDAKIEFDICYTSVLKRAIRTLWTILDVTDQMWVPVVRTWRLNERHYGGLTGLNKAETAAKHGEEQVKIWRRSFDTPPPPMDEKHNYYASISKDRRYAGLKPEELPTCESLKDTIARALPFWNEEIAPKIKAGKRVLIAAHGNSLRGIVKHLEGMSDQAIMELNLPTGIPIVYELNQELKPTKPMRFLGDEETVRKAMEAVAAQGKAK | binds
ACO1 (protein, UniProt Q63270 1-889) MKNPFAHLAEPLDPAQPGKKFFNLNKLEDSRYGRLPFSIRVLLEAAVRNCDEFLVKKNDIENILNWSIMQHKSIEVPFKPARVILQDFTGVPAVVDFAAMRDAVKKLGGNPEKINPVCPADLVIDHSIQVHFNRRADSLQKNQDLEFERNRERFEFLKWGSQAFCNMRIIPPGSGIIHQVNLEYLARVVFDQDGCYYPDSLVGTDSHTTMIDGLGVLGWGVGGIEAEAVMLGQPISMVLPQVIGYKLMGKPHPLVTSTDIVLTITKHLRQVGVVGKFVEFFGPGVAQLSIADRATIANMCPEYGATAAFFPVDDVSIAYLVQTGREEDKVKHIKRYLQAVGMFRDFSDSSQDPDFTQVVELDLKTVVPCCSGPKRPQDKVAVSEIEKDFESCLGAKQGFKGFQVAPDHHNDHKTFIYNDSEFTLAHGSVVIAAITSCTNTSNPSVMLGAGLLAKKAVEAGLNVKPYVKTSLSPGSGVVTYYLRESGVMPYLSQLGFDVVGYGCMTCIGNSGPLPEPVVEAITQGDLVAVGVLSGNRNFEGRVHPNTRANYLASPPLVIAYAIAGTVRIDFEKEPLGVNAQGQQVFLKDIWPTRDEIQEVERKYVIPGMFKEVYQKIETVNKSWNALAAPSEKLYAWNPKSTYIKSPPFFESLTLDLQPPKSIVDAYVLLNLGDSVTTDHISPAGNIARNSPAARYLTNRGLTPRDFNSYGSRRGNDAIMARGTFANIRLLNKFLNKQAPQTVHLPSGETLDVFDAAERYQQAGLPLIVLAGKEYGSGSSRDWAAKGPFLLGIKAVLAESYERTHCSNLVGMGVIPLEYLPGETADSLGLTGRERYTIHIPEHLKPRMKVQIKLDTGKTFQAVMRFDTDVELTYFHNGGILNYMIRKMAQ | binds
PPP2R2A (protein, UniProt P36876 1-447) MAGAGGGNDIQWCFSQVKGAVDDDVAEADIISTVEFNHSGELLATGDKGGRVVIFQQEQENKIQSHSRGEYNVYSTFQSHEPEFDYLKSLEIEEKINKIRWLPQKNAAQFLLSTNDKTIKLWKISERDKRPEGYNLKEEDGRYRDPTTVTTLRVPVFRPMDLMVEASPRRIFANAHTYHINSISINSDYETYLSADDLRINLWHLEITDRSFNIVDIKPANMEELTEVITAAEFHPNSCNTFVYSSSKGTIRLCDMRASALCDRHSKLFEEPEDPSNRSFFSEIISSISDVKFSHSGRYMMTRDYLSVKVWDLNMENRPVETYQVHEYLRSKLCSLYENDCIFDKFECCWNGSDSVVMTGSYNNFFRMFDRNTKRDITLEASRENNKPRTVLKPRKVCASGKRKKDEISVDSLDFNKKILHTAWHPKENIIAVATTNNLYIFQDKVN | binds
GPX3 (protein, UniProt P23764 25-226) QEKSKTDCHGGMSGTIYEYGALTIDGEEYIPFKQYAGKYILFVNVASYUGLTDQYLELNALQEELGPFGLVILGFPCNQFGKQEPGENSEILPSLKYVRPGGGFVPNFQLFEKGDVNGEKEQKFYTFLKNSCPPTAELLGSPGRLFWEPMKIHDIRWNFEKFLVGPDGIPIMRWYHRTTVSNVKMDILSYMRRQAALGARGK | binds
AKR7A2 (protein, UniProt Q8CG45 47-367) GTVLGTMEMGRRMDASASAATVRAFLERGLNELDTAFMYCDGQSESILGSLGLGLGSGDCTVKIATKANPWDGKSLKPDSVRSQLETSLKRLQCPRVDLFYLHAPDHGTPIVETLQACQQLHQEGKFVELGLSNYASWEVAEIYTLCKSNGWILPTVYQGMYNATTRQVETELLPCLRYFGLRFYAYNPLAGGLLTGKYRYEDKDGKQPEGRFFGNSWSETYRNRFWKEHHFEAIALVEKALKTTYGTSAPSMTSAALRWMYHHSQLQGTRGDAVILGMSSLEQLEQNLAATEEGPLEPAVVEAFNQAWNVVAHECPNYFR | binds
APRT (protein, UniProt P36972 1-180) MSESELQLVARRIRSFPDFPIPGVLFRDISPLLKDPDSFRASIRLLAGHLKSTHGGKIDYIAGLDSRGFLFGPSLAQELGVGCVLIRKRGKLPGPTVSASYSLEYGKAELEIQKDALEPGQKVVIVDDLLATGGTMCAACELLSQLRAEVVECVSLVELTSLKGREKLGPVPFFSLLQYE | binds
RAB2A (protein, UniProt P05712 1-212) MAYAYLFKYIIIGDTGVGKSCLLLQFTDKRFQPVHDLTMGVEFGARMITIDGKQIKLQIWDTAGQESFRSITRSYYRGAAGALLVYDITRRDTFNHLTTWLEDARQHSNSNMVIMLIGNKSDLESRREVKKEEGEAFAREHGLIFMETSAKTASNVEEAFINTAKEIYEKIQEGVFDINNEANGIKIGPQHAATNASHGGNQGGQQAGGGCC | binds
COQ7 (protein, UniProt Q63619 1-217) MSGAGAIAAASVGCLRTGVPRPFSAYGRGLIIRCHSTGMTLDNINRAAVDQIIRVDHAGEYGANRIYAGQMAVLGRTSVGPVIQKMWDQEKNHLKKFNELMVAFRVRPTVLMPLWNVAGFALGAGTALLGKEGAMACTVAVEESIAHHYNNQIRMLMEEDAEKYEELLQVIKQFRDEELEHHDTGLEHDAELAPAYTLLKRLIQAGCSAAIYLSERF | binds
RAB10 (protein, UniProt P35281 1-200) MAKKTYDLLFKLLLIGDSGVGKTCVLFRFSDDAFNTTFISTIEIDFKIKTVELQGKKIKLQIWDTAGQERFHTITTSYYRGAMGIMLVYDITNGKSFENISKWLRNIDQHANEDVERMLLRNKCDMDHKRVVPKGKGEQIAREHRIRFFETSAKANINIEKAFLTLPEDILRKTPVKEPNSENVDISSGGGVTGWKSKCC | binds
RAB3GAP2 (protein, UniProt Q5U1Z0 1-1386) MACSIVQFCSFQDLQSARDFLFPQLREETPGALRRDPSKTSNWEDDSWGAWEETEPQEPEEEGNTSKTQKHSWLQECVLSLSPTSDLMVIAREQKAAFLVRKWKHSDKGKEEMQFAVGWSGSVSAEEGEYVTSALCIPLASQKRSSTGRPDWTCIVVGFTSGYVRFYTEGVLLLAQLLNEDRVLQLKCRTYEIPRHPGVTEQNEELSILYPAAIVTIDGFSLFQSLRACRNQVAKAAASGNENIQPPPLAYKKWGLQDIDTIIDHASIGIMTLSPFDQMKTASNIGGFNAAIKNSPPAMSQYITVGSSPFTGFFYALEGSTQPLLSHVALAVASKLTSALFSAASGWLGWKSKHEEETVQKQKPKMEPATPLAVRFGLPDSRRHGESICLSPCNTLAAVTDDFGRVILLDVARGIAIRMWKGYRDAQIGWIQIVEDLHERVPEKGDFSPFGNTQGPSRVAQFLVIYAPRRGILEVWSTQQGPRVGAFNVGKHCRLLYPGYKIMGLNNVTSQSWQPQTYQICLVDPVSASVKAVNVPFHLALSDKKSERAKDLHLVKKLAALLRAKSPRPDSFEAEIKELILDIKYPATKKQALESILASDRVSFSCLRNVTQTSMDTLKNQELESVDEGLLQFCASKLKLLHLYESVSQLNTLDFHSDTPFSDNDLAVLLRLDDKELLKLRALLEKYKQENTKATVRFSEDADGVLPVKTFLEYLDYEKDALSIRKTSEEECVALGSFFFWKCLHGESSTEDMCHTLESAGLSPQQLLSLLLSVWLSKEKDILDKPQSVCCLHTMLSLLSKMKVAIDETWDSQSVSPWWQQMRMACIQSENNGAALLSAHVGHSVAAQMSSSATDKKFSQMVLDADAEALTDSWEALSLDTEYWKLLLRQLEDCLILQTLLHSRASPPAAKASSPQTEPLPRLSVKKLLEGGKGGIADSVAKWIFKQDLSPELLKCANREKDVENPDEPREGIARSPPEVSEVETDLGAVPDLLRLAYEQFPCSLELDVLHAHCCWEYVVQWNKDPEEARFLVRSIEHLRHILNPHVQNGISLMMWNTFLVKRFSAATYLMDKVGKSPKDRLCRRDVGMSDTALTSFLGSCLDLLQTSLEADISRDEVQVPVLDTEDAWLSVEGPTSIVELALEQKPIHYPLVEHHSILCSILYAAMSFSLKSVKPLALFDSKGKNAFFKDLTSIQLLPSGEMDPNFISVRQQFLLKVVSAAVQAQHSKDKDPSARAADTHGQDLNWTALAVDLAHHLQVSEDVIRRHYVGELYSYGADLLGEEAILQVQDKEVLASQLLVLTGQRLAHALFHTQTKEGMELLARLPPTLCTWLKAMNPQDLQNTGVPVAATAKLVHKVMELLPEKHGQYSLALHLIEAVEAMATL | binds
NDRG2 (protein, UniProt Q8VBU2 1-371) MAELQEVQITEEKPLLPGQTPEAAKEAELAARILLDQGQTHSVETPYGSVTFTVYGTPKPKRPAIFTYHDVGLNYKSCFQPLFQFGDMQEIIQNFVRVHVDAPGMEEGAPVFPLGYQYPSQDQLADMIPCILQYLNFSTIIGVGVGAGAYILSRYALNHPDTVEGLVLINIDPNAKGWMDWAAHKLTGLTSSIPEMILGHLFSQEELSGNSELIQKYRSLITHAPNLENIELYWNSYNNRRDLNFERGGEMTLKCPVMLVVGDQAPHEDAVVECNSKLDPTQTSFLKMADSGGQPQLTQPGKLTEAFKYFVQGMGYMASSCMTRLSRSRTASLTSAASIDGSRSRSRTLSQSSESGTLPSGPPGHTMEVSC | binds
